Measurements published in doi:10.1101/2021.01.08.425619.
These are yes or no findings as the source states them, for the method shown. Binding seen in cells or lysates may run through a third protein. A yes stands for co-enrichment or nearness to the bait. Other partners may have been found.

By UniProt entry, the sequences of proteins in these tests, tags left out.
UniProt Q24117: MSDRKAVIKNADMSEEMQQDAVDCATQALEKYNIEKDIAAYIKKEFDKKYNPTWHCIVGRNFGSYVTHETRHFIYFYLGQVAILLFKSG
UniProt P63168: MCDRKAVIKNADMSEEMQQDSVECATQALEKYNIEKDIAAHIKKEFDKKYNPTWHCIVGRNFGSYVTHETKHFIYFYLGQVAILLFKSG

B1: Sw (protein, UniProt Q24246 1-663)
chain: MDRKAELERKKAKLAALREEKDRRRREKEIKDMEEAAGRIGGGAGIDKDQRKDLDEMLSSLGVAPVSEVLSSLSSVNSMTSDNSNTQTPDASLQATVNGQSGGKKQPLNLSVYNVQATNIPPKETLVYTKQTQTTSTGGGNGDVLSCHSSPLSGYMEDWWRPRKAHATDYYDEYNLNPGLEWEDEFTDDEESSLQNLGNGFTSKLPPGYLTHGLPTVKDVAPAITPLEIKKETEVKKEVNELSEEQKQMIILSENFQRFVVRAGRVIERALSENVDIYTDYIGGGDSEEANDERSHARLSLNRVFYDERWSKNRCITSMDWSTHFPELVVGSYHNNEESPNEPDGVVMVWNTKFKKSTPEDVFHCQSAVMSTCFAKFNPNLILGGTYSGQIVLWDNRVQKRTPIQRTPLSAAAHTHPVYCLQMVGTQNAHNVISISSDGKLCSWSLDMLSQPQDTLELQQRQSKAIAITSMAFPANEINSLVMGSEDGYVYSASRHGLRSGVNEVYERHLGPITGISTHYNQLSPDFGHLFLTSSIDWTIKLWSLKDTKPLYSFEDNSDYVMDVAWSPVHPALFAAVDGSGRLDLWNLNQDTEVPTASIVVAGAPALNRVSWTPSGLHVCIGDEAGKLYVYDVAENLAQPSRDEWSRFNTHLSEIKMNQSDEV
B2: Dlc90F (protein, UniProt Q94524 1-111)
chain: MDDSREESQFIVDDVSKTIKEAIETTIGGNAYQHDKVNNWTGQVVENCLTVLTKEQKPYKYIVTAMIMQKNGAGLHTASSCYWNNDTDGSCTVRWENKTMYCIVSVFGLAV
B3: Ana2 (protein, UniProt Q9XZ31 1-420)
chain: MFVPETEDMLPRLAPRPSAAVPMGHTNEIIGPTVPEVSILFGQPPQDPQMQPQQPNHAHQESSPRAAPTFASWKKQMLPRVNFSPILATELGPRTAPSSNSPCSSKEYQVMPRDRNYASDAQQTTNHMNCNAGGYNAEPKQQAYQSRRLSSSSNADVLTICAGTQTDPFNPSPPRKSLPQVVYSDIDVSNLANKSDLAALVSLVESVRHEQQQLRNLCEMILEQQQRAKPEAISKASSTTGTQCDILTTNQAGRRLSPIMQDYIAEEEEPLPPPQARVIPQFPSPRPHPPIAQSTGYRANTPQAKRIPQLAKPNTEKSMVMNELALKYLRQPVDELMKDMRLGASPKSPNPEPLRPIDNIGHAQSPNDISNASYKYLKKYRLLPEEQLEPVCPQSPMAATAPSPHIQLDLENIRNQPKLL
B4: Zmym2 (protein, UniProt Q9CU65 1-1376)
chain: MDTSSVGTLELTDQTPVLLGSTAMATSLTNVGNSFSGPPNPLVSRSSKFQNSSVEDDDDVVFIEPVQPPPSSAPLVADQRPITFTSSKNEELQGNDPKILPSSKELAPQKGSVSETIVIDDEEDMETNQGQEKSSSNFIERRPSETKNRTNDVDFSSSTFSRSKVNAGVSNSGITTEPDSEIQIANVTTLETGVSSVSDGQLESTDGRDMNLMITHVTSLHNTSLGDGSNGLQSSNFGVNIQTYTPSLTSQTKAGVGPFNPGRMNVAGDVFQNGESAPHHNPDSWISQSASFPRNQKQQGVDSLSPVASLPKQIFQPSNQQPTKPVKVTCANCKKPLQKGQTAYQRKGSAHLFCSTTCLSSFSHKPAPKKLCVMCKKDITTMKGTIVAQVDSSESFQEFCSTSCLSLYEDKQSPAKGALNKSRCTICGKLTEIRHEVSFKNMTHKLCSDHCFNRYRMANGLIMNCCEQCGEYLPSKGAGNNVLVVDGQQKRFCCQSCVTEYKQVGSHPSFLKEVRDHMQDSFLMQPEKYGKLTTCTGCRTQCRFFDMTQCIGPNGYMEPYCSTACMNSHKTKYAKSQSLGIICHFCKRNSLPQYQATMPDGKLYNFCNSSCVAKFQALSMQSSPNGQFVAPSDIQLKCNYCKNSFCSKPEILEWENKVHQFCSKTCSDDYKKLHCIVTYCEYCQEEKTLHETVNFSGVKRPFCSEGCKLLYKQDFARRLGLRCVTCNYCSQLCKKGATKELDGVVRDFCSEDCCKKFQEWYYKAARCDCCKSQGTLKERVQWRGEMKHFCDQHCLLRFYCQQNEPNMTTQKGPENLHYDQGCQTSRTKMTGSAPPPSPTPNKEMKNKAILCKPLTMTKATYCKPHMQTKSCQTDENWKTEYVPVPIPVPVYVPVPMHMYSQNIPVPTTVPVPVPVPVFLPAPLDSSEKIPATVEDLKSKVSSDPLDSELLTMTDMMTEEEGKAEASNINSVIIETDIIGSDLTKNSDPDIQSNMPDVPYEPDLDIEIDFPRAAEELDMENEFLLPPVFGEEYEEQPRPRSKKKGTKRKAVSGYQSHDDSSDNSECSFPFKYTYGVNAWKHWVKTRQLDEDLLVLDELKSSKSVKLKEDLLSHTTAELNYGLAHFVNEIRRPNGENYAPDSIYYLCLGIQEYLCGSNRKDNIFIDPGYQMFEQELNKILRSWQPSILPDGSIFSRVEEDYLWRIKQLGSHSPVALLNTLFYFNTKYFGLKTVEQHLRLSFGTVFRHWKKNPLTMENKACLRYQVSSLCGTDNEDKIATGKRKHEDDEPVFEQVENTANPSRCPVKMFECYLSKSPQNLNQRMDVFYLQPECSSSTDSPVWYTSTSLDRNTLENMLVRVLLVKDIYDKDNYELDEDTD

Key:
[1] = target: FLAG-GFP tagged LC8 (Drosophila) (UniProt Q24117); test: affinity purification with mass spectrometry
[2] = target: Mouse LC8/Dynll1, endogenously tagged (mouse) (UniProt P63168); test: affinity purification with mass spectrometry

| binding [1] | binding [2] | Binder |
| --- | --- | --- |
| binds |  | B1 |
| binds |  | B2 |
| binds |  | B3 |
|  | binds | B4 |
